{"source": "the supplement of paper PMC8551327", "note": "Structures can show the parent of a compound that is named as a salt. Some of the results follow. Cut-off read from the data, not from the text of the source: active = 1.25 or more and inactive = the rest. Most values come without repeats; read them as rough."}
{"system": "Kcc2-LUC knock-in mouse primary cortical neurons (Kcc2 promoter reporter)", "test": "Kcc2 promoter-driven luciferase activity relative to vehicle control (fold of vehicle (ratio)); higher = stronger Kcc2 promoter activation (Kcc2 expression enhancer)", "conditions": "100 nM; 48 h"}
{"smiles": "COc1cc(NC(C)CCCN)c2ncccc2c1", "note": "(stereo not drawn)", "Kcc2 promoter-driven luciferase activity": "inactive: 0.41"}
{"smiles": "CCN(CC)CCCC(C)NC(=O)c1ccc2c(c1)C(=O)c1ccccc1C2=O", "note": "(stereo not drawn)", "Kcc2 promoter-driven luciferase activity": "inactive: 0.77"}
{"smiles": "CC(=O)NC(CC(C)C)C(=O)NC(Cc1ccccc1)C(=O)CCl", "note": "(stereo not drawn)", "Kcc2 promoter-driven luciferase activity": "inactive: 0.73"}
{"smiles": "C[C@H](CSC(=O)c1ccccc1)C(=O)N1c2ccccc2C[C@H]1C(=O)O", "Kcc2 promoter-driven luciferase activity": "inactive: 0.58"}
{"smiles": "O=C1c2ccccc2C(=O)c2nc(-c3ccccc3)c(-c3ccccc3)nc21", "note": "[2,3-Diphenylbenzo[g]quinoxaline-5,10-dione]", "Kcc2 promoter-driven luciferase activity": "inactive: 0.95"}
{"smiles": "CN(C)c1ccc(C=c2c3ccccc3n3c2cc(-c2ccc(Cl)cc2)[n+]3C)cc1", "Kcc2 promoter-driven luciferase activity": "inactive: 1.01"}
{"smiles": "OCCNCN(CNCCO)c1nc(N(CNCCO)CNCCO)nc(N(CNCCO)CNCCO)n1", "note": "[Hexahydroxyethylaminomethyl melamine]", "Kcc2 promoter-driven luciferase activity": "inactive: 0.77"}
{"smiles": "Nc1nc2c(ncn2[C@@H]2O[C@H](CO)[C@@H](O)[C@H]2O)c(=O)[nH]1", "note": "[guanosine, dihydrate]", "Kcc2 promoter-driven luciferase activity": "active: 1.39"}
{"smiles": "CC(=O)C1CCCC(=O)C=CC(=O)O1", "note": "(stereo not drawn) [2-Acetyl-2,3,4,5-tetrahydrooxonine-6,9-dione]", "Kcc2 promoter-driven luciferase activity": "active: 1.86"}
{"smiles": "O=C1OC(c2ccco2)=N/C1=C\\c1ccc(Cl)c(Cl)c1", "Kcc2 promoter-driven luciferase activity": "inactive: 1.07"}
{"smiles": "CO[C@@H]1[C@H](O)CC[C@]2(CO2)[C@H]1[C@@]1(C)O[C@@H]1CC=C(C)C", "note": "[Gelcohol]", "Kcc2 promoter-driven luciferase activity": "inactive: 0.92"}
{"smiles": "O/N=C(\\CC(O)(C(F)(F)F)C(F)(F)F)c1cccc(Cl)c1", "Kcc2 promoter-driven luciferase activity": "inactive: 0.8"}
{"smiles": "COc1ccc(/C=C2\\N=C(c3ccccc3)OC2=O)c(OCc2ccccc2)c1", "Kcc2 promoter-driven luciferase activity": "inactive: 0.71"}
{"smiles": "O=C1c2cccnc2-c2nccc3c2c1nc1cc(Br)ccc13", "note": "[2-Bromoleptoclinidinone]", "Kcc2 promoter-driven luciferase activity": "inactive: 1.14"}
{"smiles": "Clc1ccccc1C(c1ccccc1)(c1ccccc1)n1ccnc1", "note": "[Clotrimazole]", "Kcc2 promoter-driven luciferase activity": "inactive: 0.85"}
{"smiles": "CC(C)=CCC1=C(O)c2ccccc2C(=O)C1=O", "note": "[Lapachol]", "Kcc2 promoter-driven luciferase activity": "inactive: 1.15"}
{"smiles": "Cc1ccccc1NC(=O)C(=O)C(c1cnc2ccc([N+](=O)[O-])cc2n1)[N+](=O)[O-]", "note": "(stereo not drawn)", "Kcc2 promoter-driven luciferase activity": "inactive: 0.89"}
{"smiles": "CC[C@]1(O)C[C@@H]2CN(CCc3c([nH]c4ccccc34)[C@@](C(=O)OC)(c3cc4c(cc3OC)N(C)[C@H]3[C@@](O)(C(=O)OC)[C@H](OC(C)=O)[C@]5(CC)C=CCN6CC[C@]43[C@@H]65)C2)C1", "note": "[Vinblastine sulfate]", "Kcc2 promoter-driven luciferase activity": "inactive: 0.79"}
{"smiles": "O=C(CCCN1CCC(O)(c2ccc(Cl)cc2)CC1)c1ccc(F)cc1", "note": "[Haloperidol]", "Kcc2 promoter-driven luciferase activity": "inactive: 0.56"}
{"smiles": "CC1=NN(C(=O)c2ccncc2)C(=O)C1N=Nc1ccc(F)cc1", "note": "(stereo not drawn)", "Kcc2 promoter-driven luciferase activity": "active: 1.33"}
{"smiles": "OC(CN1CCCCC1)c1ccc(/C=C/c2ccc(Cl)cc2)cc1", "note": "(stereo not drawn) [1-Piperidineethanol, alpha-[p-(p-chlorostyryl)phenyl]-]", "Kcc2 promoter-driven luciferase activity": "inactive: 1.03"}
{"smiles": "CC1CCCC(C(=O)/C(=C/c2cccc(Cl)c2)C(=O)C(=O)O)C1", "note": "(stereo not drawn)", "Kcc2 promoter-driven luciferase activity": "inactive: 0.88"}
{"smiles": "O=c1cc[nH]c(=O)[nH]1", "note": "[Uracil]", "Kcc2 promoter-driven luciferase activity": "inactive: 1.1"}
{"smiles": "CS(=O)(=O)c1nc(N)nc2nc[nH]c12", "note": "[6-(Methylsulfonyl)-9H-purin-2-amine]", "Kcc2 promoter-driven luciferase activity": "inactive: 1.08"}
{"smiles": "Oc1ccc(-c2nc3ccccc3s2)cc1", "note": "[4-(1,3-Benzothiazol-2-yl)phenol]", "Kcc2 promoter-driven luciferase activity": "inactive: 0.94"}
{"smiles": "COc1ccc(-c2csc(=[N+]3CCCCC3)s2)cc1", "Kcc2 promoter-driven luciferase activity": "inactive: 1.1"}
{"smiles": "CO[C@H]1[C@H](O)[C@@H](O)[C@H](O)[C@H](O)[C@H]1O", "note": "[Quebrachitol]", "Kcc2 promoter-driven luciferase activity": "active: 1.57"}
{"smiles": "COc1ccc(/C=C2\\Cc3ccccc3C2=O)cc1OC", "note": "[(2E)-2-[(3,4-dimethoxyphenyl)methylidene]-3H-inden-1-one]", "Kcc2 promoter-driven luciferase activity": "inactive: 0.76"}
{"smiles": "CC1(C)CCCC2(C)C3=C(CCC12)C(=O)OC3", "note": "(stereo not drawn) [Confertifoline]", "Kcc2 promoter-driven luciferase activity": "inactive: 1.24"}
{"smiles": "CC(C)=CC(=O)OC1C2C(C)C(=O)OC2C(O)C(C)C2C=CC(=O)C21C", "note": "(stereo not drawn) [Fastigillin B]", "Kcc2 promoter-driven luciferase activity": "inactive: 0.55"}
{"smiles": "CC[n+]1c(-c2ccccc2)c2cc(N)ccc2c2ccc(N)cc21", "note": "[ETHIDIUM BROMIDE; Homidium bromide]", "Kcc2 promoter-driven luciferase activity": "inactive: 1.04"}
{"smiles": "[Mo]", "note": "[Polyoxomolybdate phosphate complex, disodium salt]", "Kcc2 promoter-driven luciferase activity": "inactive: 0.88"}
{"smiles": "C=C(C)[C@@H]1CCc2c(O)c(O)c(=O)cc(C)c2C1", "Kcc2 promoter-driven luciferase activity": "inactive: 0.8"}
